{"source": "patent US20100056552A1", "about": "“COMBINATION FOR USE IN THE TREATMENT OF INFLAMMATORY DISORDERS” (priority 2007, published 2010)", "experiment": "MM6 cell growth/viability (WST-1 reagent)", "assay_type": "cell-based", "conditions": "human, MonoMac-6 (MM6) macrophage cell line, drug alone 10 μM, n=3, read-out: viability of MM6 cells compared to untreated MM6 cells", "protocol": "Cells from the human macrophage cell-line MonoMac-6 (MM6) (Ziegler-Heitbrock et al, Int. J. Cancer, 41, 456 (1988)) were cultured (37° C./5% CO2) in RPMI-1640 medium supplemented with 1 mM sodium pyruvate, × nonessential amino acids, 10 μg/mL insulin, 1 mM oxalacetic acid, 100 units/mL penicillin, 100 μg/mL streptomycin and 5% (v/v) fetal bovine serum. At the start of the experiment, MM6 cells were seeded in 96-well plates at a density of 1×10^5 cells/mL (100 μL per well in cell the viability experiments, and 150 μL per well in the TNF release experiments—see below).\nThe MM6 cells were treated (incubation conditions as above) with indicated final concentrations of the test drugs for 48 hours prior to quantification of cell viability/growth or stimulation with phorbol-12-myristate-13-acetate (PMA; Sigma Aldrich, Stockholm, Sweden) followed by measurement of PMA-induced TNF-release (see below for details).\nMM6 cell growth/viability was measured using the Cell Proliferation Reagent WST-1 (Roche Diagnostics Scandinavia AB, Bromma, Sweden). The WST-1 reagent is designed to be used for spectrophotometric quantification of e.g. cell growth and viability and. was used according to the manufacturers' instructions. […]", "data": [{"smiles": "CC(C)c1c(C(=O)Nc2ccccc2)c(-c2ccccc2)c(-c2ccc(F)cc2)n1CC[C@@H](O)C[C@@H](O)CC(=O)O", "note": "[atorvastatin]", "values": [{"measurement": "viability at 48 h, 10 μM", "value": 94, "unit": "%"}]}]}
